In patent US8445240B2, “Termite enzymes and uses thereof for in vitro conversion of lignin-containing materials to fermentable products” (University of Florida Research Foundation, Inc., priority 2009, dated 2013):
Some results were stated once for a whole list of compounds, not compound by compound. For at least one compound, name, drawing or mass did not settle the structure. Some ranges recur; such a range may be that of the whole group of compounds.

The chains behind the UniProt entries cited, without tags or fusion partners.
UniProt D0E8H0, entry or part of it: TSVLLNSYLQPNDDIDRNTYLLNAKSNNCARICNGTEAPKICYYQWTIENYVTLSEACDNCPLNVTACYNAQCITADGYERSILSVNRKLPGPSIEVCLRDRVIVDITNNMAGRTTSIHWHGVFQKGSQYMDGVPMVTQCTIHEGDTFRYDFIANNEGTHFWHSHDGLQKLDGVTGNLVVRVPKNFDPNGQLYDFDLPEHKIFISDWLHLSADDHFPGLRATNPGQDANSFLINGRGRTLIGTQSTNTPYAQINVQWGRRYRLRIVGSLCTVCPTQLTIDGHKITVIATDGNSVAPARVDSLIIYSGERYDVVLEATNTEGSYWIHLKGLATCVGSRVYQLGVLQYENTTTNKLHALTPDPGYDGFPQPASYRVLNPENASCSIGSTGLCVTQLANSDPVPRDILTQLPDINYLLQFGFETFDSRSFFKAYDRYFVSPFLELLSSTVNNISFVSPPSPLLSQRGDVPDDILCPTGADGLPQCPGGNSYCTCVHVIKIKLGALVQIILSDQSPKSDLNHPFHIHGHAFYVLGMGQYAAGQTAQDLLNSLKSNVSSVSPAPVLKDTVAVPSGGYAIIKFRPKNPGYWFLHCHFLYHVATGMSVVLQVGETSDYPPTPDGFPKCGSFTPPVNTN

Molecular target: RfLacA (Reticulitermes flavipes, UniProt D0E8H0)
Test: RfLacA substrate specificity and kinetic parameters

| SMILES | Specific activity against melanin precursors relative to that of 2,6-DMP |
| --- | --- |
| CC(=O)NCCc1ccc(O)c(O)c1 [NADA] | 2.27-9.08% |
| N[C@@H](Cc1ccc(O)cc1)C(=O)O [L-tyrosine] | 2.27-9.08% |
